By UniProt entry, the sequences of proteins in these tests, tags left out. Residues count along the entry.
UniProt P08069, residues 31-932: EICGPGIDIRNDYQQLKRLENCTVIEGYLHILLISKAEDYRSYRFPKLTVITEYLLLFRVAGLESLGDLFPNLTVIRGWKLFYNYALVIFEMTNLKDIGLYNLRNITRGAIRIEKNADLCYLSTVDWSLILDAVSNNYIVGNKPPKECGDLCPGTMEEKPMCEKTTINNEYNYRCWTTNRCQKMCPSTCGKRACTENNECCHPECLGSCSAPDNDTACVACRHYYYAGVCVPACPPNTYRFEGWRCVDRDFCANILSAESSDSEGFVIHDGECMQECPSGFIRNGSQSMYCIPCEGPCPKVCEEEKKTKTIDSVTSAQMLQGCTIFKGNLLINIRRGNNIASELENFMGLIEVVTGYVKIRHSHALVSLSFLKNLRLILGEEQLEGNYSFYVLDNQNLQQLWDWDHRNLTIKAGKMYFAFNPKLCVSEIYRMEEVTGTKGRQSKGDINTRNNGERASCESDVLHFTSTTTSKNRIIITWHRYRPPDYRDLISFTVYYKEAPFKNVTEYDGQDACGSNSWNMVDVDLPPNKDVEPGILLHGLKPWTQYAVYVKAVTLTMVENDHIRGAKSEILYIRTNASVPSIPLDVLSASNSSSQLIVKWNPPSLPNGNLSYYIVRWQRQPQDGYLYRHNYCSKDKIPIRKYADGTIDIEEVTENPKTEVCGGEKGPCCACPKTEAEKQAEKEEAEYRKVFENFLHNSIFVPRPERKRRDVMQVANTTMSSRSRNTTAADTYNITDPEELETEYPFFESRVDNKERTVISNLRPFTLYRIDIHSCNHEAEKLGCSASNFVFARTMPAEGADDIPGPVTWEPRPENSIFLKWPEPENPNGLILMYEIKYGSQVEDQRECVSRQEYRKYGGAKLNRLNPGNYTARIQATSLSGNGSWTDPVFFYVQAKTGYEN

These are yes or no findings as the source states them, for the method shown. Some results given as binding are weak or reduced against the parent protein; the word gives no strength.
These binders were tested against IGF1R (UniProt P08069) (assay: MRD identification, Example 48).
In the case of AGVSADALCYEFPVLCFYDVG [IGF1387], the binding is reported as “binds”. For DGESYFYVCLEHLLNVPGYHCVMTNG [IGF1390], the binding was “binds”. With SYGTRWNPSFESNQFHMKLCVLMDGK [IGF1392] the binding was “binds”. For PGVSADALCYEFPVLCFYDV [IGF1395], the binding was “binds”. With HALCYEFPVLCFYDV [IGF1396] the binding was “binds”. For TSRRCEEYQDPLKEVCRYFL [IGF1401], the binding was “binds”. With AHALCYEFPVLCFYDVG [IGF1405] the binding was “binds”. With AHALCYEFPVLCFYDV [IGF1406] the binding was “binds”. In the case of DFYICLEHLLNVPGYHCVMTNG [IGF1408], the binding is reported as “binds”. DALCYEFPVLCFYDV [IGF1409] was tested, and the binding was “binds”. With NLMECHALDFNQGMQCLQAY [IGF1411] the binding was “binds”. With NLMECHALDFYQGMQCLQPYRHP [IGF1413] the binding was “binds”. DLMECHGLDFYKGMECLQAYG [IGF1414] was tested, and the binding was “binds”. For AHALCYEFPVLCFYDV [IGF1421], the binding was “binds”. In the case of NLMECHALDFNQGMQCVQAY [IGF1422], the binding is reported as “binds”. AHALCYEFPVLCFYDVG [IGF1430] was tested, and the binding was “binds”. With AYVCSNLNHCPALDFNQGMQCLQAYG [IGF1432] the binding was “binds”. In the case of VTEARTNDCNTTTFYHWFDCQLGTG [IGF1437], the binding is reported as “binds”. For NLMHCHGLDFYQGMQCLQAY [IGF1443], the binding was “binds”. In the case of EAECRYPDTDLMWLCTYFSG [IGF1445], the binding is reported as “binds”. In the case of DALCYEFPVLCFYDVG [IGF1446], the binding is reported as “binds”. For MAVGCTWVESCHWA [IGF1895], the binding was “binds”. For ALPECQDLMFYECLFT [IGF1896], the binding was “binds”. For FYNTCQFVGMEFYQCLDW [IGF1897], the binding was “binds”. With SVLGCDDVGFYQCLEF [IGF1899] the binding was “binds”. In the case of AARWCDMQQHSFYECLQV [IGF1900], the binding is reported as “binds”. In the case of EPRLCHNYPDFYQCMSF [IGF1904], the binding is reported as “binds”. ASQTCIGMDFYSGLECLLG [IGF1905] was tested, and the binding was “binds”. In the case of SNGSCHIVDFYGWFQCQTS [IGF1906], the binding is reported as “binds”. With ALAECIFEPTFEDCMWIL [IGF1987] the binding was “binds”. For VDMQCQVHGMTFYECLMRL [IGF1988], the binding was “binds”. In the case of TLPECLYAPTFEICVEYL [IGF1989], the binding is reported as “binds”. In the case of WEERCVDSDFYTQLCMLAW [IGF1990], the binding is reported as “binds”. GTVLCPEDMDFYECMTFI [IGF1991] was tested, and the binding was “binds”. REELCSVSPFDYHCRLFS [IGF1992] was tested, and the binding was “binds”. LSYTCQHFDLPWELCLSLH [IGF1993] was tested, and the binding was “binds”. In the case of VISECEGLTFYQCMASL [IGF1994], the binding is reported as “binds”. With WEEWCVDSDFYTQLCMLAW [IGF1995] the binding was “binds”. In the case of REPLCIQDDPIMYLHCYFSV [IGF1996], the binding is reported as “binds”. In the case of MSYTCEDFDLPWELCLSLH [IGF1997], the binding is reported as “binds”. For DDLDCKCLTFYECMAAL [IGF1998], the binding was “binds”. WSNVCQARNMAFQECLEYL [IGF1999] was tested, and the binding was “binds”. For EDLGCLYLTFNQCMMWL [IGF2000], the binding was “binds”. FAHECSFHKLNFYQCLSFE [IGF2001] was tested, and the binding was “binds”. LMDFCYVYPNICGCSN [IGF2002] was tested, and the binding was “binds”. For SRFVCQHDWGFYECLSML [IGF2004], the binding was “binds”. In the case of ASHICHLIPTIEQCLFSL [IGF2005], the binding is reported as “binds”. VISECEGLTFYECMAAL [IGF2006] was tested, and the binding was “binds”. With VDMLCQVHGMTFYECLMLL [IGF2009] the binding was “binds”. In the case of WEEWCVDSDFYTQLCLLAW [IGF2010], the binding is reported as “binds”. WDRWCVTEELPEQLCFLDG [IGF2011] was tested, and the binding was “binds”. In the case of MSYTCEDFDLPCELCLSLH [IGF2012], the binding is reported as “binds”. With GLDSCQQAYFYQFFCEVFR [IGF2013] the binding was “binds”. VDMQCQVHGMTFYQCLMRL [IGF2014] was tested, and the binding was “binds”. For EDLGCMYLTFYECMIWL [IGF2015], the binding was “binds”. For VSALCEDLEFYECILAL [IGF2016], the binding was “binds”. In the case of DVRECEGLTFYECMAAL [IGF2017], the binding is reported as “binds”. In the case of TAWCHAAGLTFTQCLLWL [IGF2019], the binding is reported as “binds”. For CEEWCVDSDFYTQLCMLAW [IGF2020], the binding was “binds”. GISECEGLTFYECMAAL [IGF2021] was tested, and the binding was “binds”. With EYKVCTSNDTFHWGICALLK [IGF2022] the binding was “binds”. For EDLGCMYLTFDECMMWL [IGF2023], the binding was “binds”. With WKEWCVDSDFYTQLCMLAW [IGF2025] the binding was “binds”. For FGQLCDQQVETMIECFERL [IGF2026], the binding was “binds”. For DLFDCQGLTFYQCLAAL [IGF2027], the binding was “binds”. LQQICDPEHVTFYQCMTLL [IGF2029] was tested, and the binding was “binds”. For QSLTCNDFTDWQSLCRC [IGF2030], the binding was “binds”. With PREACHDYDVVLHQLCMYFV [IGF2031] the binding was “binds”. In the case of EDLGCVCLTFYECMIAL [IGF2033], the binding is reported as “binds”.
